Measured values published in patent EP4296281A1.
Results are given in words; binding and its absence hold for the method and conditions named. Some results given as binding are weak or reduced against the parent protein; the word gives no strength. Where a sequence is shown, tags or fusion partners need not be part of it.

How the values were obtained:
[1] = target: T1, La epitope 5B9 (SEQ ID No. 28) fused to human Fc domain (human); assay: SPR, Fig. 3A
T1 sequence: KPLPEVTDEY

[2] = target: T1, La epitope 5B9 (SEQ ID No. 28) fused to human Fc domain (human); assay: SPR, Fig. 3B
[3] = target: T1, La epitope 5B9 (SEQ ID No. 28) fused to human Fc domain (human); assay: SPR, Fig. 3C
[4] = target: T1, La epitope 5B9 (SEQ ID No. 28) fused to human Fc domain (human); assay: SPR, Fig. 3D
[5] = target: T1, La epitope 5B9 (SEQ ID No. 28) fused to human Fc domain (human); assay: SPR, Fig. 3E

B1: reference targeting module according to SEQ ID No. 2 (bispecific antibody)
chain: EVQLQQSGPELVKPGASVKMSCKASGYTFTDYYMKWVKQSHGKSLEWIGDIIPSNGATFYNQKFKGKATLTVDRSSSTAYMHLNSLTSEDSAVYYCTRSHLLRASWFAYWGQGTLVTVSAASGGGGSGGGGSGGGGSDFVMTQSPSSLTVTAGEKVTMSCKSSQSLLNSGNQKNYLTWYLQKPGQPPKLLIYWASTRESGVPDRFTGSGSGTDFTLTISSVQAEDLAVYYCQNDYSYPYTFGGGTKLEIKAAARGQVQLVQSGAEVKKPGASVKVSCKASGYTFTHYYIYWVRQAPGQGLEWMGGVNPSNGGTHFNEKFKSRVTMTRDTSISTAYMELSRLRSDDTAVYYCARSEYDYGLGFAYWGQGTLVTVSSGGGGSGGGGSGGGGSDIVMTQSPDSLAVSLGERATINCKSSQSLLNSRTPKNYLAWYQQKPGQPPKLLIYWASTRKSGVPDRFSGSGSGTDFTLTISSLQAEDVAVYYCKQSYNLLTFGGGTKVEIKGPEQKLISEEDLNSAVDHHHHHH
- binding [1]: binds

B2: targeting module according to SEQ ID No. 3 (bispecific antibody)
chain: GQVQLVQSGAEVKKPGSSVKVSCKASGYTFTDYYIHWVRQAPGQGLEWMGDIIPSNGATFYNQRFKGRVTITADESTSTAYMELSSLRSEDTAVYYCTRSHLLRASWFAYWGQGTLVTVSSASGGGGSGGGGSGGGGSDIVMTQTPLSLSVTPGQPASISCRSSQSLLNSGNQKNYLTWYLQKPGQSPQLLIYWASTRFIGVPDRFSGSGSGTDFTLKISRVEAEDVGVYYCQNDYSYPYTFGQGTKLEIKAAARGDIVMTQSPDSLAVSLGERATINCKSSQSLLNSRTPKNYLAWYQQKPGQPPKLLIYWASTRKSGVPDRFSGSGSGTDFTLTISSLQAEDVAVYYCKQSYNLLTFGGGTKVEIKGGGGSGGGGSGASAAGGGGSGGGGSQVQLVQSGAEVKKPGASVKVSCKASGYTFTHYYIYWVRQAPGQGLEWMGGVNPSNGGTHFNEKFKSRVTMTRDTSISTAYMELSRLRSDDTAVYYCARSEYDYGLGFAYWGQGTLVTVSSGGGGSHHHHHHHH
- binding [2]: binds

B3: targeting module according to SEQ ID No. 4 (bispecific antibody)
chain: GQVQLVQSGAEVKKPGASVKMSCKASGYTFTDYYMKWVKQAPGQGLEWIGDIIPSNGATFYNQKFQGRATLTVDTSTSTAYMELSSLRSEDTAVYYCTRSHLLRASWFAYWGQGTLVTVSSASGGGGSGGGGSGGGGSDIVMTQSPDSLAVSLGERATINCKSSQSLLNSGNQKNYLTWYLQKPGQPPKLLIYWASTRESGVPDRFSGSGSGTDFTLTISSVQAEDVAVYYCQNDYSYPYTFGGGTKLEIKAAARGDIVMTQSPDSLAVSLGERVTMNCKSSQSLLNSRTPKNYLAWYQQKPGQSPKLLIYWASTRKSGVPDRFSGSGSGTDFTLTISSVQAEDVAVYYCKQSYNLLTFGGGTKLEIKGGGGSGGGGSGASAAGGGGSGGGGSQVQLVESGAEVVKPGASVKLSCKASGYAFTHYYIYWIKQAPGQGLEWIGGVNPSNGGTHFNEKFKSRATLTVDTSISTAYMELSRLRSDDTAVYYCTRSEYDYGLGFAYWGQGTLVTVSSGGGGSHHHHHHHH
- binding [3]: binds

B4: targeting module according to SEQ ID No. 5 (bispecific antibody)
chain: EVQLQQSGPELVKPGASVKMSCKASGYTFTDYYMKWVKQSHGKSLEWIGDIIPSNGATFYNQKFKGKATLTVDRSSSTAYMHLNSLTSEDSAVYYCTRSHLLRASWFAYWGQGTLVTVSAASGGGGSGGGGSGGGGSDFVMTQSPSSLTVTAGEKVTMSCKSSQSLLNSGNQKNYLTWYLQKPGQPPKLLIYWASTRESGVPDRFTGSGSGTDFTLTISSVQAEDLAVYYCQNDYSYPYTFGGGTKLEIKAAARGDIVMTQSPDSLAVSLGERATINCKSSQSLLNSRTPKNYLAWYQQKPGQPPKLLIYWASTRKSGVPDRFSGSGSGTDFTLTISSLQAEDVAVYYCKQSYNLLTFGGGTKVEIKGGGGSGGGGSGASAAGGGGSGGGGSQVQLVQSGAEVKKPGASVKVSCKASGYTFTHYYIYWVRQAPGQGLEWMGGVNPSNGGTHFNEKFKSRVTMTRDTSISTAYMELSRLRSDDTAVYYCARSEYDYGLGFAYWGQGTLVTVSSGGGGSHHHHHHHH
- binding [4]: binds

B5: targeting module according to SEQ ID No. 6 (bispecific antibody)
chain: EVQLQQSGPELVKPGASVKMSCKASGYTFTDYYMKWVKQSHGKSLEWIGDIIPSNGATFYNQKFKGKATLTVDRSSSTAYMHLNSLTSEDSAVYYCTRSHLLRASWFAYWGQGTLVTVSAASGGGGSGGGGSGGGGSDFVMTQSPSSLTVTAGEKVTMSCKSSQSLLNSGNQKNYLTWYLQKPGQPPKLLIYWASTRESGVPDRFTGSGSGTDFTLTISSVQAEDLAVYYCQNDYSYPYTFGGGTKLEIKAAARGDIVMTQSPDSLAVSLGERVTMNCKSSQSLLNSRTPKNYLAWYQQKPGQSPKLLIYWASTRKSGVPDRFSGSGSGTDFTLTISSVQAEDVAVYYCKQSYNLLTFGGGTKLEIKGGGGSGGGGSGASAAGGGGSGGGGSQVQLVESGAEVVKPGASVKLSCKASGYAFTHYYIYWIKQAPGQGLEWIGGVNPSNGGTHFNEKFKSRATLTVDTSISTAYMELSRLRSDDTAVYYCTRSEYDYGLGFAYWGQGTLVTVSSGGGGSHHHHHHHH
- binding [5]: binds
